# In the supplement of paper PMC8728848:
# The other results are listed elsewhere or left out.
# What was measured:
# Experiment in all cases: glycan array binding signal (z-score within array); higher = stronger binding
# Settings in all cases: glycan notation: IUPAC condensed, linker removed
# [1] = biological target: Gal(b1-3)GlcNAc(b1-2)Man(a1-3)[Gal(b1-3)GlcNAc(b1-2)Man(a1-6)]Man(b1-4)GlcNAc(b1-4)[Fuc(a1-6)]GlcNAc
# Outline: (§1)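 From the Consortium for Functional Glycomics database, 3228 arrays were curated, keeping only those whose protein sequence was available. Binding is given as a within-array Z-score averaged across arrays sharing a protein sequence and across linkers. Negative Z-scores can be read as non-binding.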
# [2] = biological target: Gal(b1-3)GlcNAc(b1-2)Man(a1-3)[GlcNAc(b1-4)][Gal(b1-3)GlcNAc(b1-2)Man(a1-6)]Man(b1-4)GlcNAc(b1-4)GlcNAc
# Outline: as §1
# [3] = biological target: Gal(b1-3)GlcNAc(b1-2)[Gal(b1-3)GlcNAc(b1-6)]Man(a1-6)[Gal(b1-3)GlcNAc(b1-2)Man(a1-3)]Man(b1-4)GlcNAc(b1-4)GlcNAc
# Outline: as §1
# [4] = biological target: Gal(b1-3)GlcNAc(b1-3)Gal(b1-3)GlcNAc
# Outline: as §1
# [5] = biological target: Gal(b1-3)GlcNAc(b1-3)Gal(b1-4)Glc
# Outline: as §1
# [6] = biological target: Gal(b1-3)GlcNAc(b1-3)Gal(b1-4)GlcNAc
# Outline: as §1
# [7] = biological target: Gal(b1-3)GlcNAc(b1-3)Gal(b1-4)GlcNAc(b1-2)Man(a1-3)[Gal(b1-3)GlcNAc(b1-3)Gal(b1-4)GlcNAc(b1-2)Man(a1-6)]Man(b1-4)GlcNAc(b1-4)GlcNAc
# Outline: as §1
# [8] = biological target: Gal(b1-3)GlcNAc(b1-3)Gal(b1-4)GlcNAc(b1-2)[Gal(b1-3)GlcNAc(b1-3)Gal(b1-4)GlcNAc(b1-6)]Man(a1-6)[Gal(b1-3)GlcNAc(b1-3)Gal(b1-4)GlcNAc(b1-2)Man(a1-3)]Man(b1-4)GlcNAc(b1-4)[Fuc(a1-6)]GlcNAc
# Outline: as §1
# [9] = biological target: Gal(b1-3)GlcNAc(b1-3)Gal(b1-4)GlcNAc(b1-3)Gal(b1-4)GlcNAc(b1-2)[Gal(b1-3)GlcNAc(b1-3)Gal(b1-4)GlcNAc(b1-3)Gal(b1-4)GlcNAc(b1-6)]Man(a1-6)[Gal(b1-3)GlcNAc(b1-3)Gal(b1-4)GlcNAc(b1-3)Gal(b1-4)GlcNAc(b1-2)Man(a1-3)]Man(b1-4)GlcNAc(b1-4)[Fuc(a1-6)]GlcNAc
# Outline: as §1
# [10] = biological target: Gal(b1-3)GlcNAc(b1-3)Gal(b1-4)GlcNAc(b1-6)[Gal(b1-3)GlcNAc(b1-3)]Gal(b1-4)Glc
# Outline: as §1
# [11] = biological target: Gal(b1-3)GlcNAc(b1-3)Gal(b1-4)[Fuc(a1-3)]GlcNAc
# Outline: as §1
# [12] = biological target: Gal(b1-3)GlcNAc(b1-3)Gal(b1-4)[Fuc(a1-3)]GlcNAc(b1-6)[Gal(b1-3)GlcNAc(b1-3)]Gal(b1-4)Glc
# Outline: as §1
# [13] = biological target: Gal(b1-3)GlcNAc(b1-3)GalNAc
# Outline: as §1
# [14] = biological target: Gal(b1-3)GlcNAc(b1-6)Gal(b1-4)GlcNAc
# Outline: as §1
# [15] = biological target: Gal(b1-3)GlcNAc(b1-6)GalNAc
# Outline: as §1
# [16] = biological target: Gal(b1-3)GlcNAc(b1-6)[Gal(b1-3)]GalNAc
# Outline: as §1
# Gal(b1-3)GlcNAc6S = biological target: Gal(b1-3)GlcNAc6S
# Outline: as §1
# [17] = biological target: Gal(b1-3)[Fuc(a1-4)]GlcNAc
# Outline: as §1
# [18] = biological target: Gal(b1-3)[Fuc(a1-4)]GlcNAc(b1-2)Man
# Outline: as §1
# [19] = biological target: Gal(b1-3)[Fuc(a1-4)]GlcNAc(b1-2)Man(a1-3)[Gal(b1-3)[Fuc(a1-4)]GlcNAc(b1-2)Man(a1-6)]Man(b1-4)GlcNAc(b1-4)[Fuc(a1-6)]GlcNAc
# Outline: as §1
# [20] = biological target: Gal(b1-3)[Fuc(a1-4)]GlcNAc(b1-3)Gal(b1-3)[Fuc(a1-4)]GlcNAc
# Outline: as §1
# [21] = biological target: Gal(b1-3)[Fuc(a1-4)]GlcNAc(b1-3)Gal(b1-4)[Fuc(a1-3)]GlcNAc
# Outline: as §1
# [22] = biological target: Gal(b1-3)[Fuc(a1-4)]GlcNAc(b1-6)GalNAc
# Outline: as §1
# [23] = biological target: Gal(b1-3)[GlcNAc(b1-6)]GalNAc
# Outline: as §1
# [24] = biological target: Gal(b1-3)[Neu5Ac(a2-6)]GalNAc
# Outline: as §1
# [25] = biological target: Gal(b1-3)[Neu5Ac(a2-6)]GlcNAc(b1-4)Gal(b1-4)Glc
# Outline: as §1
# [26] = biological target: Gal(b1-3)[Neu5Ac(b2-6)]GalNAc
# Outline: as §1
# Gal(b1-4)Gal = biological target: Gal(b1-4)Gal
# Outline: as §1
# [27] = biological target: Gal(b1-4)GalNAc(a1-3)[Fuc(a1-2)]Gal(b1-4)GlcNAc
# Outline: as §1
# [28] = biological target: Gal(b1-4)GalNAc(b1-3)[Fuc(a1-2)]Gal(b1-4)GlcNAc
# Outline: as §1
# Gal(b1-4)Glc = biological target: Gal(b1-4)Glc
# Outline: as §1
# Gal(b1-4)Glc6S = biological target: Gal(b1-4)Glc6S
# Outline: as §1
# Gal(b1-4)GlcNAc = biological target: Gal(b1-4)GlcNAc
# Outline: as §1
# [29] = biological target: Gal(b1-4)GlcNAc(a1-6)Gal(b1-4)GlcNAc
# Outline: as §1
# Gal(b1-4)GlcNAc(b1-2)Man = biological target: Gal(b1-4)GlcNAc(b1-2)Man
# Outline: as §1
# [30] = biological target: Gal(b1-4)GlcNAc(b1-2)Man(a1-3)Man(b1-4)GlcNAc(b1-4)GlcNAc
# Outline: as §1
# [31] = biological target: Gal(b1-4)GlcNAc(b1-2)Man(a1-3)[Gal(b1-4)GlcNAc(b1-2)Man(a1-6)]Man(b1-4)GlcNAc(b1-4)GlcNAc
# Outline: as §1
binder,measurement,setting,value
PX9961KLbvu-535-38-535 (Bacteroides vulgatus) (protein) DKAYTDAESYTKGLHKIYSVWALSGQDGSSSSDISGLDAGNTALLRCWWTLQEQPTDEMKNAWNDAWCTEVNYMTWTTNKVEPIEGVYQRCMYIVALVNEFLKNIPNAPESIDKESYIAQARFNRAFAYYVLMDMFALPPFITEKNYSIEPAPLSREDLFNWIEAELNEIKPNLPSPRSEYGVADQAVASALLARMYLNAEIYTGKARYTECINACNEVIKAGYQLADNYADLFKADNGENPDTKKEIIYPIIFDGDKTQSWGMAAIIIGARGAEDKDVLLAHSGVDQGWAGFRATSNLVHLFDFQNDEEPKASEIQDKRGIFYDKGRSIDITSSVSGTFETEGWSVFKFSNLNSNGQPGKNTLWVDTDFPMFRLGDIYLMYAEAVARGGEGSKASAVEYINALRKRAYGDDKHNISENWLEENNFRNLLDERGRELYWEGIRRTDLVRFDLLTSGSYTWDFKGGINTGVGVNKRYNVYPIPVTDLTVNGNLQQNEGY,glycan array binding signal (z-score),[1],-0.623
same,glycan array binding signal (z-score),[2],0.359
same,glycan array binding signal (z-score),[3],-0.229
same,glycan array binding signal (z-score),[4],-0.549
same,glycan array binding signal (z-score),[5],-1.03
same,glycan array binding signal (z-score),[6],0.002
same,glycan array binding signal (z-score),[7],-0.083
same,glycan array binding signal (z-score),[8],0.403
same,glycan array binding signal (z-score),[9],0.333
same,glycan array binding signal (z-score),[10],-0.446
same,glycan array binding signal (z-score),[11],0.922
same,glycan array binding signal (z-score),[12],-0.623
same,glycan array binding signal (z-score),[13],-0.68
same,glycan array binding signal (z-score),[14],-0.398
same,glycan array binding signal (z-score),[15],-0.11
same,glycan array binding signal (z-score),[16],-0.352
same,glycan array binding signal (z-score),Gal(b1-3)GlcNAc6S,0.353
same,glycan array binding signal (z-score),[17],-0.123
same,glycan array binding signal (z-score),[18],-0.21
same,glycan array binding signal (z-score),[19],0.228
same,glycan array binding signal (z-score),[20],-0.394
same,glycan array binding signal (z-score),[21],-1.16
same,glycan array binding signal (z-score),[22],0.535
same,glycan array binding signal (z-score),[23],-0.541
same,glycan array binding signal (z-score),[24],-0.357
same,glycan array binding signal (z-score),[25],0.322
same,glycan array binding signal (z-score),[26],0.222
same,glycan array binding signal (z-score),Gal(b1-4)Gal,-0.111
same,glycan array binding signal (z-score),[27],-0.291
same,glycan array binding signal (z-score),[28],-0.673
same,glycan array binding signal (z-score),Gal(b1-4)Glc,-0.043
same,glycan array binding signal (z-score),Gal(b1-4)Glc6S,0.941
same,glycan array binding signal (z-score),Gal(b1-4)GlcNAc,-0.213
same,glycan array binding signal (z-score),[29],-0.503
same,glycan array binding signal (z-score),Gal(b1-4)GlcNAc(b1-2)Man,0.434
same,glycan array binding signal (z-score),[30],0.158
same,glycan array binding signal (z-score),[31],-0.667

# Another view of part of the listing above.
binder	measurement	setting	value
PX9961KLbvu-535-38-535 (Bacteroides vulgatus) (protein) DKAYTDAESYTKGLHKIYSVWALSGQDGSSSSDISGLDAGNTALLRCWWTLQEQPTDEMKNAWNDAWCTEVNYMTWTTNKVEPIEGVYQRCMYIVALVNEFLKNIPNAPESIDKESYIAQARFNRAFAYYVLMDMFALPPFITEKNYSIEPAPLSREDLFNWIEAELNEIKPNLPSPRSEYGVADQAVASALLARMYLNAEIYTGKARYTECINACNEVIKAGYQLADNYADLFKADNGENPDTKKEIIYPIIFDGDKTQSWGMAAIIIGARGAEDKDVLLAHSGVDQGWAGFRATSNLVHLFDFQNDEEPKASEIQDKRGIFYDKGRSIDITSSVSGTFETEGWSVFKFSNLNSNGQPGKNTLWVDTDFPMFRLGDIYLMYAEAVARGGEGSKASAVEYINALRKRAYGDDKHNISENWLEENNFRNLLDERGRELYWEGIRRTDLVRFDLLTSGSYTWDFKGGINTGVGVNKRYNVYPIPVTDLTVNGNLQQNEGY	glycan array binding signal (z-score)	[3]	-0.229
same	glycan array binding signal (z-score)	[4]	-0.549
